The values below come from publication PMC4741518, “Adaptive Remodeling of the Bacterial Proteome by Specific Ribosomal Modification Regulates Pseudomonas Infection and Niche Colonisation” (PLoS Genetics, 2016).

No constants are given. Whether binding was seen depends on the method and setting. In cells and extracts the contact can be indirect. These calls come from enrichment with a bait or labelling near it, and not all partners need be listed.

In experiment [1] the target is Conserved EAL domain protein RimA (P. fluorescens SBW25). The experiment in a line: affinity purification with mass spectrometry; C-terminally flag-tagged RimA, RimB or RimK expressed from pME6032 plasmids in P. fluorescens SBW25; lysate in IP buffer (20 mM HEPES pH 7.4, 100 mM NaCl, 1 mM EDTA, 1.0% Triton X-100, protease inhibitor), pre-cleared with protein-A agarose, ANTI-FLAG M2 affinity gel overnight at 4°C, 5 washes; interacting proteins detected by Orbitrap mass spectrometry; controls: M2 beads only and unrelated flag-tagged proteins (PFLU3129 and PFLU3130).

Experiment [2] addresses Ribosomal protein S6 modification protein RimK (P. fluorescens SBW25). The experiment is described as above.

B1: UPF0229 protein PFLU5583 (protein, UniProt C3K332 1-423)
chain: MSYVIDRRLNGKNKSTVNRQRFLRRYRDHIKKAVEEAVSRRSITDMEHGEQISIPGRDIDEPVLHHGRGGKQTVVHPGNKEFTTGEHIQRPQGGGGGKGPGKAGNSGEGMDEFVFQITQEEFLEFMFEDLELPNLVKRNLTGTDTFKTVRAGISNEGNPSRINIIRTLRSAHARRIALSGSSRAKLRDAKEELARLKREEPDNFGDIQEIEAEIEKLSARIHRVPFLDTFDLKYNLLVKQPNPSSKAVMFCLMDVSGSMTQATKDIAKRFFILLYLFLKRNYDKIDVVFIRHHTSAREVDEEEFFYSRETGGTIVSSALKLMQEIMAERYPANEWNIYAAQASDGDNWNDDSPICRDILINQIMPFVQYYTYVEITPREHQALWFEYERIGEAFADTFAQQQLVSAGDIYPVFRELFQRRLVT
With B1, the binding result in experiment [1] and in experiment [2] was “binds” each time.
